# Results reported in the supplement of paper PMC6411743.
# The chains behind the UniProt entries cited, without tags or fusion partners. Where a name states a change or a piece, a line headed by the entry shows the natural chain unless it says otherwise.
# UniProt Q8NDF8: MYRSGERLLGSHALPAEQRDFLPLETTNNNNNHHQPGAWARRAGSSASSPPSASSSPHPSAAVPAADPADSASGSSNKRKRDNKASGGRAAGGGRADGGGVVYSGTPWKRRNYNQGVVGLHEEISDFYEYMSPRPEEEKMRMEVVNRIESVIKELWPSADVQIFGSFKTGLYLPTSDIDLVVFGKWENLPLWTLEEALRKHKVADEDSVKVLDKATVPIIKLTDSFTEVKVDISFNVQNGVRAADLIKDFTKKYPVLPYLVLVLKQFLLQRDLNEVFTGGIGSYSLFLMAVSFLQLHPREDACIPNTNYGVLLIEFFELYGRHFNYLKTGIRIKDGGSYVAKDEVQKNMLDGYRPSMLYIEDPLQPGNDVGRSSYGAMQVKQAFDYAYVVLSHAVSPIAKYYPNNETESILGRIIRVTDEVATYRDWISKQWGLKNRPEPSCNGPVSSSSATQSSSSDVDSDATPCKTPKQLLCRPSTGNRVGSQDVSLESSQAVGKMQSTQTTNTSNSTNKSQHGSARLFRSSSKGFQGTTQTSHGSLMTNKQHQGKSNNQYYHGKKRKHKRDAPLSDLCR
# UniProt Q92733: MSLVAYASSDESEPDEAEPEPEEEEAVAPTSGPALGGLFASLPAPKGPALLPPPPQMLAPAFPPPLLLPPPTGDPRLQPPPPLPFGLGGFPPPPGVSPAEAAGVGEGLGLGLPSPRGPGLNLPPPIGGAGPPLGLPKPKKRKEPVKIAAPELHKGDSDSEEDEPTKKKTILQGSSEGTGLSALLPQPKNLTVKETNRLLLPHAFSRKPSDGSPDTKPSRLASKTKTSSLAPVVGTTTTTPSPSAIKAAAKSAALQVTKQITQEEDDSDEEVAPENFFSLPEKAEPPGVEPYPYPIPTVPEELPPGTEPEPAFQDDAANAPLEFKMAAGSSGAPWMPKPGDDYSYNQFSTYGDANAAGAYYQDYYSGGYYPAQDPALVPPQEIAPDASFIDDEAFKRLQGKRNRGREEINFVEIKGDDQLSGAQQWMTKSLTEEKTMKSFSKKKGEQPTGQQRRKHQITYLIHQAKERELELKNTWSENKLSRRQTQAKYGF
# UniProt P60510: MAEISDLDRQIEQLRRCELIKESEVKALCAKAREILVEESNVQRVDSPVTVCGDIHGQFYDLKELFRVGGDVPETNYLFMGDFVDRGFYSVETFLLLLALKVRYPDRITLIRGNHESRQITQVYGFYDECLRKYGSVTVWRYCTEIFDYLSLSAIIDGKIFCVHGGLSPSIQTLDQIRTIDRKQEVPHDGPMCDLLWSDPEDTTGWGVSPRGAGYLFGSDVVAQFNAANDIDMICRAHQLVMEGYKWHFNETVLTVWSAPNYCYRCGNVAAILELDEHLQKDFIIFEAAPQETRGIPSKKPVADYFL
# UniProt Q9NPR2: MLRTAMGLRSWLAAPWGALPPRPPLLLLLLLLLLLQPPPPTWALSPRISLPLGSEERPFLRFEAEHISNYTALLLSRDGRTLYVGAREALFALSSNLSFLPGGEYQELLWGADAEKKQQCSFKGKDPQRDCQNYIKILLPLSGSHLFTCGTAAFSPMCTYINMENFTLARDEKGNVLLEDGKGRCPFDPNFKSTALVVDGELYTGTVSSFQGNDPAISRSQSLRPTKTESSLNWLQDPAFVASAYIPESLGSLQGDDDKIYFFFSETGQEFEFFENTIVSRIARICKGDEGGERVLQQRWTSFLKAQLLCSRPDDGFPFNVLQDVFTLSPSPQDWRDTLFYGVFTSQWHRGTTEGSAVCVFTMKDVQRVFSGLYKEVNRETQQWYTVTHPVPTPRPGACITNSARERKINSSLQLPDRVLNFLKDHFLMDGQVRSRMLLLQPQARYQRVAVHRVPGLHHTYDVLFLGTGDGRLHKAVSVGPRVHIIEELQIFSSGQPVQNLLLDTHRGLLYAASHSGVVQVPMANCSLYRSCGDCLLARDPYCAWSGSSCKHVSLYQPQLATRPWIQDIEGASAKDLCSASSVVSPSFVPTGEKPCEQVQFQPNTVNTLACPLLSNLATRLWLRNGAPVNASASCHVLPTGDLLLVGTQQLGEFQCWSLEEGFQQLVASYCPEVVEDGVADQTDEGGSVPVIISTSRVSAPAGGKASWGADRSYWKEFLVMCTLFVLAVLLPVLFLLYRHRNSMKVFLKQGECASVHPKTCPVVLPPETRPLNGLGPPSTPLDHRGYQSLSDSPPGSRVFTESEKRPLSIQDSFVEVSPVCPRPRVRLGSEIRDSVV
# UniProt Q8IWX8: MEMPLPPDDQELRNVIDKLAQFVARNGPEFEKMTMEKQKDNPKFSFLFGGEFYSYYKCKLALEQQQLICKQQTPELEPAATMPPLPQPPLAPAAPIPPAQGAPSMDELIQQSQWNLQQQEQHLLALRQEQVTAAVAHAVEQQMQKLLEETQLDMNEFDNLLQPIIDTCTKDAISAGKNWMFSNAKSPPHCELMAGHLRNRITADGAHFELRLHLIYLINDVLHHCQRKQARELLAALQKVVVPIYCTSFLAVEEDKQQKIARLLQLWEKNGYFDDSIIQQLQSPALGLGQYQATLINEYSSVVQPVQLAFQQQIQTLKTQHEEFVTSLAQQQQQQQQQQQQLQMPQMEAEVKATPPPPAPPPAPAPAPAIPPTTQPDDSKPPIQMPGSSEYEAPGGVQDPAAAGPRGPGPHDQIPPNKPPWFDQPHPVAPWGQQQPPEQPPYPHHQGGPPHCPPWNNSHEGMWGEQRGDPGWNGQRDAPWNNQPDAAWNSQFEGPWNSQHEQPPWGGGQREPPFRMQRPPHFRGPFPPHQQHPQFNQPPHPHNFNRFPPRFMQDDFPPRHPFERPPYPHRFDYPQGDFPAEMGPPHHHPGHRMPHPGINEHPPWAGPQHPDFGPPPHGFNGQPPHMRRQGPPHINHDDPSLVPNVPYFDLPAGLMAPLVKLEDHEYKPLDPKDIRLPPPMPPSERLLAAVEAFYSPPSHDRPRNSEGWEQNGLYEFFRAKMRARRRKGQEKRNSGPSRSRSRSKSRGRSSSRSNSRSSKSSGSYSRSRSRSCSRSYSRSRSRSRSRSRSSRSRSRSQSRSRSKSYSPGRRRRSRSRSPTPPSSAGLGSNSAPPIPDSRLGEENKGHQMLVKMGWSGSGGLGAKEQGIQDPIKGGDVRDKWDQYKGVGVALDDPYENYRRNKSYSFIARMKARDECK
# UniProt H0UI80: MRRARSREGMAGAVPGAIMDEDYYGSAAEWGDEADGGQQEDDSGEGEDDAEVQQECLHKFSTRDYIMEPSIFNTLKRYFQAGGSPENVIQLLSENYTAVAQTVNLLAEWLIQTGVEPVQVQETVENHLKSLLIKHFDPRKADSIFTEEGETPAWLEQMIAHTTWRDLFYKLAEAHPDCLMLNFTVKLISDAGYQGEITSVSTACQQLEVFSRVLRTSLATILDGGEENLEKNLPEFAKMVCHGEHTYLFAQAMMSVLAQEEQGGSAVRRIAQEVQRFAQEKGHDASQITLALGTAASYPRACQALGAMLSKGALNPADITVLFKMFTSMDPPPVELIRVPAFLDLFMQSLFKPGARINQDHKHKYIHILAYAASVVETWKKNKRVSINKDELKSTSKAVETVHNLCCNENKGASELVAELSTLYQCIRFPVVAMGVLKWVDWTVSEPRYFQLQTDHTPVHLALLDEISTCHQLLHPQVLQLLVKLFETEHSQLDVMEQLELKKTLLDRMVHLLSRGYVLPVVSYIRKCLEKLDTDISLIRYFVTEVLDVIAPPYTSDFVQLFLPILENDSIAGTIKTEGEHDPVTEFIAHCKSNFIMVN
# UniProt P35080, whole entry: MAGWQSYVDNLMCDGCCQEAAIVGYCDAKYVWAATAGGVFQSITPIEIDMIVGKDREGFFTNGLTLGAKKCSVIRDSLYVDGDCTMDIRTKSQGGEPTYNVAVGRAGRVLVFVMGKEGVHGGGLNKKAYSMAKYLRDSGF
# UniProt Q9C0C9: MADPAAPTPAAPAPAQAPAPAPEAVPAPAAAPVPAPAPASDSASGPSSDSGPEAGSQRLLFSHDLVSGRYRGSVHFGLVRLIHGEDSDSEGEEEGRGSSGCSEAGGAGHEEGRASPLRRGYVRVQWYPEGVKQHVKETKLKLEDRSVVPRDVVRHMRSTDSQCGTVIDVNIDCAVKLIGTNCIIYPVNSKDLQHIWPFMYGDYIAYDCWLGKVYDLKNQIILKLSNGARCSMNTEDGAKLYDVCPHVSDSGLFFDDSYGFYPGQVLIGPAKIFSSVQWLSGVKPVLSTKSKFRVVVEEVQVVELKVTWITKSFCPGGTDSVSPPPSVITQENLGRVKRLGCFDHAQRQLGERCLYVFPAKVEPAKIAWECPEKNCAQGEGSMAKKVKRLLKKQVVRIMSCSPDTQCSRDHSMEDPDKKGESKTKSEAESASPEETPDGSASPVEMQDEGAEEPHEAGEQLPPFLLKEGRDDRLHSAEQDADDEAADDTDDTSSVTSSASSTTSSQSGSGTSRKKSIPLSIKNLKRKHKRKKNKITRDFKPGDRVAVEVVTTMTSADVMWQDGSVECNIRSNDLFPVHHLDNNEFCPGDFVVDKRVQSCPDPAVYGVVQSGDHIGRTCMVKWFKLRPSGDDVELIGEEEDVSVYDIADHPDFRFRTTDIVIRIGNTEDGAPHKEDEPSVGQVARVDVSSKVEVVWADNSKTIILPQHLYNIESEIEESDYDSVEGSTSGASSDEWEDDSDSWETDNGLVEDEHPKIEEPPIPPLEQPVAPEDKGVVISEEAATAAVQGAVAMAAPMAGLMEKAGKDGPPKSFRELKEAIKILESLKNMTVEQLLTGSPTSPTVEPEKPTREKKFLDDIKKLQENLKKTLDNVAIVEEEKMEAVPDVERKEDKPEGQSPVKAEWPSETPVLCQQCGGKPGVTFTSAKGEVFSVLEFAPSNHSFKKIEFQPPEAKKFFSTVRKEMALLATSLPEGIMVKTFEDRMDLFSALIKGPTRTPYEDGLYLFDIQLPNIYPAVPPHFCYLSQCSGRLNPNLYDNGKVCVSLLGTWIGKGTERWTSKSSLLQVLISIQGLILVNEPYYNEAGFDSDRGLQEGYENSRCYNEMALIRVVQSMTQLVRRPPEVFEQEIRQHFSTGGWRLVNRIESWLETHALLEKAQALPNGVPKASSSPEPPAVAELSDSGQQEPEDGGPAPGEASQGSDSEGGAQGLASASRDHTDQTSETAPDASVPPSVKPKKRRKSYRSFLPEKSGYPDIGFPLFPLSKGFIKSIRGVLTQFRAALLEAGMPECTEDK
# UniProt Q96CD2: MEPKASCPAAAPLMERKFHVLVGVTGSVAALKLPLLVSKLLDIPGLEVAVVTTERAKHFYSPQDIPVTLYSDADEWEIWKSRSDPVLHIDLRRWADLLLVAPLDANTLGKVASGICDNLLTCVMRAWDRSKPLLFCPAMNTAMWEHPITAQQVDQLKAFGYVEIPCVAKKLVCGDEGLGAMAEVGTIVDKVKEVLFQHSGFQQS
# UniProt P49321, whole entry: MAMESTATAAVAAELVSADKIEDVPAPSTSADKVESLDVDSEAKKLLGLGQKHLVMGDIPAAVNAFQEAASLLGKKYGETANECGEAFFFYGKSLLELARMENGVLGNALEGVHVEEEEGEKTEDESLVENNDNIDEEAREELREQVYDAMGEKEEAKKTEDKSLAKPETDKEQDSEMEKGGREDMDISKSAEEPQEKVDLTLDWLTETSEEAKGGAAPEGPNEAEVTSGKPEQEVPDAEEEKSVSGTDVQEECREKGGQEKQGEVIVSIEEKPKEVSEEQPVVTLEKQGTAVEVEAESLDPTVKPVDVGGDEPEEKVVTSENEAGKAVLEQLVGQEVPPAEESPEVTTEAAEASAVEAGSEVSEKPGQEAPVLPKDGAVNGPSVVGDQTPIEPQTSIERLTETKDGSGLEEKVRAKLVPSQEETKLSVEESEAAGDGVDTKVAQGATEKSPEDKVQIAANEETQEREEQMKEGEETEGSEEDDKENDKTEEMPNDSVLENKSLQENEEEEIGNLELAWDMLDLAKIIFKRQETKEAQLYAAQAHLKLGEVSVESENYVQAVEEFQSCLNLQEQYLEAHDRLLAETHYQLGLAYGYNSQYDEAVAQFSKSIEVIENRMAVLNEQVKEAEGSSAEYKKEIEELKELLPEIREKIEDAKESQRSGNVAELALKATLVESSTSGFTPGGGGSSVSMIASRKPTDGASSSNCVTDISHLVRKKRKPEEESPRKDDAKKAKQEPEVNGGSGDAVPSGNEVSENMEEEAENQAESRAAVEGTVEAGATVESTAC
# UniProt Q6P2D0: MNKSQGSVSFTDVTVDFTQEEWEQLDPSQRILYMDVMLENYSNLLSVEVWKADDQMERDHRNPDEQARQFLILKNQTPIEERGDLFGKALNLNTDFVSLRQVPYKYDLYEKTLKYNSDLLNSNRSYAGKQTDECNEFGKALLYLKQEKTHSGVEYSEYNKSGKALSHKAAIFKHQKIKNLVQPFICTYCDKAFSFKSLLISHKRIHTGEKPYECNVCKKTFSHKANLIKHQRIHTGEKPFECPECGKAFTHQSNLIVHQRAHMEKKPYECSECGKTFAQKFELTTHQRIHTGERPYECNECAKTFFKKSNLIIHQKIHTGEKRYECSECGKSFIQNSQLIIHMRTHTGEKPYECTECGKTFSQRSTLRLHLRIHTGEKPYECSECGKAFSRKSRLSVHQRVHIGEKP
# ± gives the standard deviation of the averaged measurements. Only a part is listed here, and it is no random draw. Small differences around the control level are noise.
# Compound: Nc1ncnc2c1ncn2[C@@H]1O[C@H](COP(=O)(O)OP(=O)(O)OP(=O)(O)O)[C@@H](O)[C@H]1O [adenosine triphosphate]
# Experiment: NP40-soluble protein abundance relative to vehicle (solubility fold change) (ratio); higher = more soluble protein in presence of ATP
# How it was run: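 Data come from three independent experiments in which Dounce-homogenised Jurkat crude lysate was treated at eight concentrations from 0.1 to 10 mM. Treatment ran 10 min at room temperature and then 3 min at 37 °C, after which 0.8% NP40 and benzonase were added for 60 min at 4 °C before ultracentrifugation. The supernatant underwent TMT labelling and LC-MS/MS, and vsn-normalised intensities were expressed as fold change against the detergent-processed vehicle in each replicate.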
Target,NP40-soluble protein abundance (concentration: 0.1mM),NP40-soluble protein abundance (concentration: 0.5mM)
H0YN33 and related entries (UniProt Q9BW66),1.1 ± 0.13,1.32 ± 0.083
H3BQM0 and related entries (UniProt Q8NDF8),1.01 ± 0.11,1.03 ± 0.1
H0Y9Z5 and related entries (UniProt Q96LI5),1.08 ± 0.053,1.17 ± 0.2
H7BZB3 and related entries (UniProt P27708),0.995 ± 0.047,0.991 ± 0.062
H3BNF9 and related entries (UniProt Q9Y2V0),0.9769 ± 0.0047,0.9806 ± 0.0061
J3KNN3 and related entries (UniProt P15735),0.984 ± 0.05,0.967 ± 0.062
H3BPB8 and related entries (UniProt P34949),1.03 ± 0.011,1.04 ± 0.016
H0Y679 and related entries (UniProt Q92733),1.01 ± 0.04,0.983 ± 0.032
H0YLM8 and related entries (UniProt Q8TDJ6),1.02 ± 0.049,0.972 ± 0.022
H0Y5D5 and related entries (UniProt Q9ULV3),0.972 ± 0.03,0.971 ± 0.042
K7EM91 and related entries (UniProt O43291),0.971 ± 0.035,0.98 ± 0.11
H7C560 and related entries (UniProt P15056),1.06 ± 0.018,1.04 ± 0.046
J3KQH6 and related entries (UniProt P78364),0.93 ± 0.05,0.974 ± 0.02
H3BTA2 and related entries (UniProt P60510),1.04 ± 0.068,1.05 ± 0.06
J3KNP4 and related entries (UniProt Q9NPR2),0.967 ± 0.018,0.955 ± 0.046
I3L2J0 (UniProt Q96RK0),0.949 ± 0.037,0.996 ± 0.05
H3BRN4 and related entries (UniProt P80404),1.04 ± 0.06,0.993 ± 0.023
J3QK89 and related entries (UniProt Q8IWX8),1.03 ± 0.038,1.1 ± 0.049
H7C3X7 and related entries (UniProt Q2T9K0),1.1 ± 0.24,0.91 ± 0.38
J3KSZ8 and related entries (UniProt Q68DK7),1.09 ± 0.14,1.14 ± 0.059
H0Y8W3 and related entries (UniProt O43566),1 ± 0.021,1 ± 0.013
K7EKW4 and related entries (UniProt Q96AB3),0.989 ± 0.03,0.94 ± 0.041
J3KP75 and related entries (UniProt O75167),0.938 ± 0.074,0.882 ± 0.031
H0UI80 and related entries (UniProt X6RLT1+Q8IXH7+H0UI80),0.965 ± 0.033,0.96 ± 0.085

Target,NP40-soluble protein abundance (concentration: 0.1mM),NP40-soluble protein abundance (concentration: 0.5mM)
G5E9Q6 and related entries (UniProt P35080),0.997 ± 0.026,0.97 ± 0.032
H3BP16 and related entries (UniProt Q9NVX0),0.979 ± 0.059,1.02 ± 0.036
J3KQJ1 and related entries (UniProt Q8NBJ7),1.011 ± 0.01,0.989 ± 0.031
I3L072 and related entries (UniProt Q9BSJ5),1.01 ± 0.087,0.996 ± 0.081
K7ES11 and related entries (UniProt Q9C0C9),0.972 ± 0.018,1 ± 0.031
K7EPA3 and related entries (UniProt Q9NX61),1.04 ± 0.062,1 ± 0.034
J3QR07 and related entries (UniProt Q96MU7),1.003 ± 0.0087,0.952 ± 0.031
H3BPZ0 and related entries (UniProt Q6PCT2),1.06 ± 0.09,1.04 ± 0.088
K7ER95 and related entries (UniProt Q92918),1.06 ± 0.029,1.05 ± 0.028
J3KQN4 and related entries (UniProt P83881),0.899 ± 0.059,0.869 ± 0.053
G5E9V6 and related entries (UniProt Q8IUR7),0.944 ± 0.058,0.997 ± 0.075
H3BRF9 and related entries (UniProt Q96K21),0.945 ± 0.018,0.923 ± 0.03
G5EA30 and related entries (UniProt Q92879),0.9868 ± 0.0031,0.998 ± 0.057
H3BLZ8 (UniProt Q92841),1.01 ± 0.064,0.994 ± 0.094
K7EQJ5 and related entries (UniProt P62841),0.928 ± 0.15,0.903 ± 0.12
H0Y7P7 and related entries (UniProt Q9UG56),1.04 ± 0.055,0.924 ± 0.063
H9KV84 and related entries (UniProt Q6ZTU2),0.968 ± 0.13,0.836 ± 0.2
H7C5I3 and related entries (UniProt P35236),1.02 ± 0.04,1.03 ± 0.017
H3BRQ0 and related entries (UniProt Q96CD2),0.987 ± 0.072,0.967 ± 0.033
I3L3K5 and related entries (UniProt O95476),1.02 ± 0.13,1.02 ± 0.015
H0YDS9 and related entries (UniProt P49321),0.932 ± 0.032,0.934 ± 0.019
K7ERP1 and related entries (UniProt Q9GZN7),1.06 ± 0.029,0.992 ± 0.045
J3KNQ1 and related entries (UniProt Q6P2D0),1.01 ± 0.068,1 ± 0.071
H3BU53 and related entries (UniProt Q8IWI9),1.01 ± 0.047,1.01 ± 0.057

# Full records from above.
# H3BPB8 and related entries (UniProt P34949) as listed: NP40-soluble protein abundance (concentration: 0.1mM): 1.03 ± 0.011; NP40-soluble protein abundance (concentration: 0.5mM): 1.04 ± 0.016
# I3L2J0 (UniProt Q96RK0) as listed: NP40-soluble protein abundance (concentration: 0.1mM): 0.949 ± 0.037; NP40-soluble protein abundance (concentration: 0.5mM): 0.996 ± 0.05
